PubChem BioAssay AID743121, NCATS – 2013

- Screen: 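Knock-downs that sensitise breast cancer cells to camptothecin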 (primary screen)
- Cells: MDA-MB-231 cells, a human breast cancer line
- Reagent: single siRNA against human genes, 20 nM siRNA (0.8 pmol per well)
- Timing: 120 h (drug added 48 h after transfection, read 72 h later)
- Challenge: camptothecin 20 nM (about EC30) for 72 h; vehicle 0.1% DMSO in parallel plates
- Measurement: 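Cell viability by ATP luminescence (CellTiter-Glo) as % of non-targeting siRNA wells, and the log2 ratio of viability without drug over viability with camptothecin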
- Reading the numbers: log2 vehicle/camptothecin viability: higher = stronger sensitisation to camptothecin
- Active means: 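Active genes have an RSA gene-level p-value below 0.001, computed from the ratios of their separate siRNAs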
Shown is an unselected part of about 26,000 reagents. Of all reagents, 167 (0.63%) are marked active. 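Calls are per gene from RSA p-values that are not deposited; an individual active-marked siRNA can sensitise only weakly.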 The numbers tell different reagents against one gene apart. Further read-outs or replicates are left out here.

For ATRN (attractin) #1, what does the deposit list?
log2 vehicle/camptothecin viability: -0.173; Outcome: inactive

For ATRN (attractin) #2, what does the deposit list?
log2 vehicle/camptothecin viability: -0.299; Outcome: inactive

For ATRN (attractin) #3, how do the results read?
log2 vehicle/camptothecin viability: -0.112; Outcome: inactive

How did the screen score ATRN (attractin) #4?
log2 vehicle/camptothecin viability: -0.318; Outcome: inactive

With KCNH1 (potassium voltage-gated channel subfamily H member 1) #1, what does the deposit list?
log2 vehicle/camptothecin viability: 0.966; Outcome: inactive

For KCNH1 (potassium voltage-gated channel subfamily H member 1) #2, how do the results read?
log2 vehicle/camptothecin viability: -0.348; Outcome: inactive

For KCNH1 (potassium voltage-gated channel subfamily H member 1) #3, what does the deposit list?
log2 vehicle/camptothecin viability: 0.232; Outcome: inactive

How did the screen score KCNH1 (potassium voltage-gated channel subfamily H member 1) #4?
log2 vehicle/camptothecin viability: 0.22; Outcome: inactive

For P4HTM (prolyl 4-hydroxylase, transmembrane) #1, what does the deposit list?
log2 vehicle/camptothecin viability: -0.00871; Outcome: inactive

With P4HTM (prolyl 4-hydroxylase, transmembrane) #2, what does the deposit list?
log2 vehicle/camptothecin viability: -0.192; Outcome: inactive

What is on record for P4HTM (prolyl 4-hydroxylase, transmembrane) #3?
log2 vehicle/camptothecin viability: -0.834; Outcome: inactive

For P4HTM (prolyl 4-hydroxylase, transmembrane) #4, what was measured?
log2 vehicle/camptothecin viability: -0.256; Outcome: inactive

With GLMN (glomulin) #1, what was measured?
log2 vehicle/camptothecin viability: -0.035; Outcome: inactive

With GLMN (glomulin) #2, what was measured?
log2 vehicle/camptothecin viability: 0.00636; Outcome: inactive

For GLMN (glomulin) #3, how do the results read?
log2 vehicle/camptothecin viability: -0.229; Outcome: inactive

With GLMN (glomulin) #4, what was measured?
log2 vehicle/camptothecin viability: 0.675; Outcome: inactive

How did the screen score LTB (lymphotoxin beta) #1?
log2 vehicle/camptothecin viability: -0.35; Outcome: inactive

Which result is listed for LTB (lymphotoxin beta) #2?
log2 vehicle/camptothecin viability: 0.373; Outcome: inactive

With LTB (lymphotoxin beta) #3, what was measured?
log2 vehicle/camptothecin viability: -0.443; Outcome: inactive

For LTB (lymphotoxin beta) #4, what does the deposit list?
log2 vehicle/camptothecin viability: -0.0329; Outcome: inactive

Laid out differently: entries from further up
Target gene | siRNA no. | log2 vehicle/camptothecin viability | Outcome
ATRN (attractin) | 4 | -0.318 | inactive
KCNH1 (potassium voltage-gated channel subfamily H member 1) | 1 | 0.966 | inactive

Additional records:
With SLAMF9 (SLAM family member 9) #1, what does the deposit list?
log2 vehicle/camptothecin viability: 0.493; Outcome: inactive

What did the screen give for SLAMF9 (SLAM family member 9) #2?
log2 vehicle/camptothecin viability: 0.285; Outcome: inactive

For SLAMF9 (SLAM family member 9) #3, what does the deposit list?
log2 vehicle/camptothecin viability: -0.0349; Outcome: inactive

For SLAMF9 (SLAM family member 9) #4, what does the deposit list?
log2 vehicle/camptothecin viability: -0.088; Outcome: inactive

For BHLHE22 (basic helix-loop-helix family member e22) #1, how do the results read?
log2 vehicle/camptothecin viability: -0.351; Outcome: inactive

What did the screen give for BHLHE22 (basic helix-loop-helix family member e22) #2?
log2 vehicle/camptothecin viability: -0.122; Outcome: inactive

For BHLHE22 (basic helix-loop-helix family member e22) #3, what was measured?
log2 vehicle/camptothecin viability: -0.152; Outcome: inactive

How did the screen score BHLHE22 (basic helix-loop-helix family member e22) #4?
log2 vehicle/camptothecin viability: -0.394; Outcome: inactive

With BCL10 (BCL10 immune signaling adaptor) #1, what does the deposit list?
log2 vehicle/camptothecin viability: -0.301; Outcome: inactive

How did the screen score BCL10 (BCL10 immune signaling adaptor) #2?
log2 vehicle/camptothecin viability: -0.0712; Outcome: inactive

What did the screen give for BCL10 (BCL10 immune signaling adaptor) #3?
log2 vehicle/camptothecin viability: -0.142; Outcome: inactive

What did the screen give for BCL10 (BCL10 immune signaling adaptor) #4?
log2 vehicle/camptothecin viability: -0.35; Outcome: inactive

With OR1C1 (olfactory receptor family 1 subfamily C member 1) #1, how do the results read?
log2 vehicle/camptothecin viability: 0.0996; Outcome: inactive

How did the screen score OR1C1 (olfactory receptor family 1 subfamily C member 1) #2?
log2 vehicle/camptothecin viability: -0.171; Outcome: inactive

What did the screen give for OR1C1 (olfactory receptor family 1 subfamily C member 1) #3?
log2 vehicle/camptothecin viability: -0.196; Outcome: inactive

With OR1C1 (olfactory receptor family 1 subfamily C member 1) #4, how do the results read?
log2 vehicle/camptothecin viability: 0.131; Outcome: inactive
